Our source for the AC50 values is PubChem BioAssay AID493014 (National Center for Advancing Translational Sciences (NCATS), 2011).

The nature of this experiment: qHTS Assay to Find Inhibitors of Chronic Active B-Cell Receptor Signaling. Conditions: ABC-DLBCL IkBa-CBG/CBR reporter, luminescence ratio (green luciferase fused to IkBa over red control in TMD8 lymphoma cells), 4 h. A digest of the protocol:
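TMD8 ABC-DLBCL cells carrying doxycycline-inducible green luciferase fused to IkappaBalpha plus unfused red luciferase were exposed to compounds (up to 46 uM) for 4 hrs at 37C. Activity came from the overlap-corrected green/red luminescence ratio.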
(In general: In qHTS, concentration-response curves come from the screen itself.)

[1] abbreviates: measured here: CBR red luminescence, cell number.
[2] abbreviates: measured here: IkBa-CBG green luminescence.

Some of the results follow. Further columns of the screen follow, without active or inactive calls. Compounds called inactive in the main read-out are mostly missing here. Words in brackets tell the shape of the fitted curve; partial curves, single points and poor fits give uncertain potencies.

As for `COc1ccc(/C=C/C(=O)C2(O)CCCCC2)cc1`, the AC50 – broadly, the concentration giving half of the maximal activity seen – under setting [1] is 14.1 µM [falling, single point].

With `COc1ccccc1C(=O)NNC(=O)c1ccccc1Br`, the AC50 under setting [1] is 8.91 µM [falling, partial curve]. As to `CN(C(=O)c1ccc(COc2ccccc2Cl)o1)c1ccccc1`, the AC50 under setting [1] was 11.2 µM [falling, partial curve]. On the same count and under the same terms, then `Cc1ccc(-n2c(N)c(C(=O)Nc3ccccc3F)sc2=S)cc1C`, with 22.4 µM [falling, partial curve, poor fit]; and `COC(=O)c1c(NC(=O)c2nn(C)cc2Cl)sc2c1CCCC2`, with 32.6 µM [falling, single point]. The same measure, in the same setting: then `Cn1cnc([N+](=O)[O-])c1Sc1ncn[nH]1`, with 0.891 µM [rising, partial curve, poor fit]; and `N=c1oc2cc(O)ccc2cc1C(=O)Nc1ccccn1`, with 12.6 µM [falling, single point]. Turning to `Cc1cc2nnc(SC(C)C)n2c2ccccc12`, the AC50 runs as follows: under setting [1], 3.66 µM [rising, partial curve, poor fit]; under setting [2], 23.1 µM [falling, single point]. In the case of `CN(C(=O)COC(=O)c1ccc2c(c1)OCO2)C1CCS(=O)(=O)C1` (configuration not stated), under setting [1], the AC50 is 25.1 µM [falling, single point]. Take `COc1cccc(C(=O)c2c[nH]c(C(=O)NCc3cccnc3)c2)c1`: the AC50 under setting [1] was 11.2 µM [falling, partial curve]. For `Cc1cc([N+](=O)[O-])ccc1NC1CCCC1`, the AC50 under setting [1] is 29.1 µM [rising, partial curve, poor fit].

With `Cc1cc2cc(CN(CCN(C)C)C(=S)NCc3ccco3)c(=O)[nH]c2cc1C`, the AC50 under setting [1] was 14.1 µM [falling, single point]. With `O=C(C1CC1c1ccccc1)N1CCOCC1` (configuration not stated), under setting [1], the AC50 is 3.55 µM [rising, full curve, poor fit].

`CCOc1cc(N2CCOCC2)c(OCC)cc1NC(=O)COC(=O)CCOc1ccc(C)cc1`: the AC50 reads like this: under setting [1], 14.6 µM [falling, partial curve]; under setting [2], 8.2 µM [rising, partial curve, poor fit]. Consider `O=C(N/N=C/c1ccncc1)c1ccc(NS(=O)(=O)c2cccs2)cc1`, for which the AC50 under setting [1] was 12.6 µM [falling, partial curve, poor fit]. In the case of `Cc1c(C(=O)Oc2cccc3ccccc23)cnn1-c1ccccc1`, the AC50 under setting [1] was 0.517 µM [rising, full curve, poor fit]. Turning to `O=C1N[C@@H](c2ccccc2)COC(=O)[C@H](Cc2ccc(F)cc2)CC/C=C/C[C@H]1CC(=O)N(CCO)Cc1ccccc1`, the AC50 under setting [1] was 3.26 µM [falling, partial curve]. Still for that read-out and setting: then `CCOC(=O)C1=C(C)Nc2ncnn2C1c1cc(OC)ccc1OC` (configuration not stated), with 1.64 µM [falling, single point]; and `CCCCCCCCCC(=O)Nn1cnc2ccccc2c1=O`, with 35.5 µM [rising, single point]; and `COc1cccc(NC(=O)C(=O)N/N=C/c2cc(C)n(-c3ccc(Cl)c(Cl)c3)c2C)c1`, with 7.31 µM [falling, partial curve, poor fit]. As to `CCN(CC)C(=O)CSc1nc(-c2cccs2)cc(-c2cccs2)c1C#N`, under setting [1], the AC50 is 3.26 µM [falling, full curve, poor fit]. `COC(=O)c1cccc(Nc2ncnc3sccc23)c1`: the AC50 under setting [1] was 35.5 µM [falling, single point]. On to `CCCC(=O)OCCNc1cc(Sc2nccn2C)c2nonc2c1[N+](=O)[O-]`, for which, under setting [2], the AC50 is 3.66 µM [falling, full curve].

`O=C(/C=C\c1ccc(-c2cccc([N+](=O)[O-])c2)o1)N1CCOCC1`: the AC50 under setting [1] is 8.91 µM [rising, partial curve, poor fit].

Consider `Cc1ccc2occ(CN3CCN(c4ccccc4)CC3)c(=O)c2c1`, for which the AC50 under setting [1] was 20.6 µM [rising, single point]. Turning to `Cc1cc([N+](=O)[O-])ccc1NC(=O)c1cc2ccccc2o1`, the AC50 under setting [1] was 0.501 µM [rising, full curve, poor fit].

In the case of `Cc1occc1C(=O)Nc1cc(C(F)(F)F)ccc1Cl`, the AC50 under setting [1] is 0.231 µM [rising, full curve, poor fit].

For `COc1ccc2[nH]c(CN3CCC(CO)(CCOc4ccccc4)CC3)c(C)c2c1`, under setting [1], the AC50 was 35.5 µM [falling, single point].

Turning to `N/C(=N\OC(=O)c1ccccc1[N+](=O)[O-])c1ccccn1`, the AC50 under setting [1] was 25.1 µM [falling, single point]. Take `Cc1cccc(C(=O)OCC(=O)N2CCCC2=O)c1O`: under setting [1], the AC50 is 16.4 µM [falling, single point]. `CCOc1ccc(NC(=O)CN(C)C(=O)c2cc(-c3cccs3)nn2-c2ccccc2)cc1OCC`: under setting [1], the AC50 was 3.26 µM [rising, single point].

As to `c1ccc2c(-c3ccncc3)c[nH]c2c1`, the AC50 under setting [1] was 28.2 µM [falling, single point]. The same measure, in the same setting: then `CC(=O)Nc1sc(NC(=O)c2ccco2)nc1-c1cccs1`, with 0.501 µM [falling, full curve, poor fit]; and `COC(=O)C1=C(C)N(Cc2ccccc2)C(=S)N[C@H]1c1cccc(F)c1`, with 35.5 µM [falling, single point]. Still for that read-out and setting: then `COc1ccc(C2=NS(=O)(=O)N(C)C(C(=O)NCc3ccco3)=C2)cc1OC`, with 0.112 µM [rising, full curve, poor fit]; and `COc1cccc(C2=NOC(C(=O)Nc3ccccc3SC)C2)c1` (configuration not stated), with 5.8 µM [falling, partial curve, poor fit].

On to `COCCNC(=O)CCCn1c(=O)c2cc(OC)c(OC)cc2n(CC(=O)Nc2ccc(F)cc2)c1=O`, for which the AC50 under setting [1] was 22.4 µM [falling, partial curve, poor fit]. As to `CC(C)Cc1nnc(NC(=O)c2ccncc2)s1`, the AC50 under setting [1] is 20 µM [falling, single point]. Consider `Cc1cc(SCC(=O)c2ccccc2)n2nc(C)nc2n1`, for which the AC50 under setting [1] is 29.1 µM [falling, single point].

`Cc1[nH]n(-c2ccc(F)cc2)c(=O)c1/C=N/c1sc2c(c1C#N)CCCC2`: the AC50 under setting [1] is 3.16 µM [falling, full curve]. On to `O=C1CCCC2=C1C(c1ccc(Br)cc1)c1c([nH]c(=S)[nH]c1=O)N2` (configuration not stated), for which the AC50 under setting [1] was 23.1 µM [falling, single point]. As to `C=CCN(c1ccc(C(=O)NCCc2ccccc2)cc1)S(C)(=O)=O`, under setting [1], the AC50 is 32.6 µM [rising, single point].

Consider `CC1(NC(=O)Cc2csc(-c3cccc(Cl)c3)n2)CCS(=O)(=O)C1` (configuration not stated), for which the AC50 under setting [1] is 1.84 µM [rising, full curve]. For `COc1ccccc1NC(=O)c1ccc(CS(=O)(=O)c2ccc(C)cc2)cc1`, under setting [1], the AC50 is 10 µM [falling, partial curve, poor fit]. For the molecule `Cc1ccc2nc(N/N=C/c3ccccc3C#N)nc(-c3ccccc3)c2c1`, the AC50 under setting [1] was 2.24 µM [falling, full curve, poor fit]. `Cc1ccc(Oc2ccc(-c3nc(N)nc(N)n3)cc2)cc1C`: the AC50 is, setting by setting: under setting [1], 29.1 µM [rising, single point]; under setting [2], 32.6 µM [falling, partial curve, poor fit]. In the case of `Nc1[nH]n(-c2ccccc2)c(=O)c1N=Nc1ccccc1`, the AC50 under setting [1] is 2.51 µM [falling, full curve]. On the same count and under the same terms, then `CC1(C)CCC[C@]2(C)[C@H]3Cc4cc(O)ccc4O[C@]3(C)CC[C@@H]12`, with 32.6 µM [rising, single point]. Still for that read-out and setting: then `COC(=O)c1c(NC(=O)C2C3CCC(C3)C2C(=O)O)sc2c1CCCCC2` (configuration not stated), with 35.5 µM [rising, single point]; and `CCOC(=O)c1ccc(NC(=O)c2ccccc2)cc1`, with 18.4 µM [falling, single point]; and `CCOc1ccc(C=NNc2ccc(S(=O)(=O)Nc3ccccc3C(=O)O)cc2[N+](=O)[O-])cc1OC`, with 32.6 µM [rising, partial curve, poor fit].

Consider `COc1ccc(/C(N)=N/OC(=O)Cc2ccc(C)cc2)cc1OC`, for which the AC50 under setting [1] was 4.61 µM [falling, single point]. Still for that read-out and setting: then `O=C(Cn1nnc(-c2ccc(F)cc2)n1)OCC(=O)c1ccccc1`, with 22.4 µM [falling, partial curve, poor fit]; and `O=C(Nc1ccccc1)C1=C[C@@H](c2ccccc2)C[C@@H](OCc2ccc(CO)cc2)O1`, with 1.12 µM [falling, full curve]; and `COc1ccc(C(=O)c2c(N)sc3c2CCN(C)C3)cc1`, with 2.51 µM [falling, partial curve, poor fit]. Take `Cc1cccnc1Nc1nc(-c2ccc(O)c(O)c2)cs1`: under setting [1], the AC50 is 6.51 µM [falling, full curve]. Still for that read-out and setting: then `Cc1cccc(C)c1OCC(O)CNC(C)c1ccccc1` (configuration not stated), with 11.2 µM [falling, partial curve, poor fit]; and `Cc1cc(/C=N/n2cnnc2)c(C)n1-c1ccc(OCc2ccc(Cl)cc2)cc1`, with 18.4 µM [falling, partial curve]; and `COc1ccc(C(CC(=O)O)NC(=O)c2cccs2)cc1` (configuration not stated), with 0.231 µM [rising, full curve, poor fit]. Same read-out and setting: then `CCOc1ccccc1C(=O)Nc1ccc2c(c1)N(C)C(=O)c1ccccc1S2`, with 14.1 µM [falling, partial curve, poor fit]; and `O=C(CSC(=S)N1CCOCC1)Nc1nc(-c2ccccc2)c(-c2ccccc2)o1`, with 0.447 µM [falling, full curve, poor fit]. Same read-out and setting: then `O=C(OCc1nc2ccccc2s1)C1CCN(S(=O)(=O)c2cccs2)CC1`, with 25.9 µM [rising, single point]; and `O=C(O)c1ccc(COc2ccc([N+](=O)[O-])cc2)o1`, with 14.1 µM [falling, single point]. For `COc1ccccc1NC(=O)c1nnn(CC(=O)Nc2ccccc2)c1N`, under setting [1], the AC50 is 1.84 µM [falling, full curve, poor fit].
